Data as given in the supplement of paper PMC10849652.
The other results are listed elsewhere or left out.

By UniProt entry, the sequences of proteins in these tests, tags left out. Where a name states a change or a piece, a line headed by the entry shows the natural chain unless it says otherwise.
UniProt Q8WUK0: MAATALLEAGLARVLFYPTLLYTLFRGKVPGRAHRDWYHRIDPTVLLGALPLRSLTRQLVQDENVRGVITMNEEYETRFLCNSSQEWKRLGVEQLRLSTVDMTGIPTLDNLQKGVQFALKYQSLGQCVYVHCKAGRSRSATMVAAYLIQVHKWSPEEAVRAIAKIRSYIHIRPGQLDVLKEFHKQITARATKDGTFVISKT
UniProt Q9H0R6: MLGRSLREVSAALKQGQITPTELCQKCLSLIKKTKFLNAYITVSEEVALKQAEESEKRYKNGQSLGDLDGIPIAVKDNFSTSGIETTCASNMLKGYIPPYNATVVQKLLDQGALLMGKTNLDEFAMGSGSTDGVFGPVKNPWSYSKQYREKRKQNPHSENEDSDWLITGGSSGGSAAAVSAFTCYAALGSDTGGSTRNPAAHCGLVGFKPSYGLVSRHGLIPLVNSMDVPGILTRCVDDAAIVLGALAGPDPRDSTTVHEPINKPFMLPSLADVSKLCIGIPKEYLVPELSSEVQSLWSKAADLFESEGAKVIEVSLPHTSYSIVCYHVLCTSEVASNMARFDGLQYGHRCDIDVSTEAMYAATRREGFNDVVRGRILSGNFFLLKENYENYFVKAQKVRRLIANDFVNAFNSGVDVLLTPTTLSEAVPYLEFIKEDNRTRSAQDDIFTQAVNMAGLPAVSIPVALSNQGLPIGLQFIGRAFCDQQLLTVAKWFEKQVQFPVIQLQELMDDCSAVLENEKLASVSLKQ
UniProt Q16401: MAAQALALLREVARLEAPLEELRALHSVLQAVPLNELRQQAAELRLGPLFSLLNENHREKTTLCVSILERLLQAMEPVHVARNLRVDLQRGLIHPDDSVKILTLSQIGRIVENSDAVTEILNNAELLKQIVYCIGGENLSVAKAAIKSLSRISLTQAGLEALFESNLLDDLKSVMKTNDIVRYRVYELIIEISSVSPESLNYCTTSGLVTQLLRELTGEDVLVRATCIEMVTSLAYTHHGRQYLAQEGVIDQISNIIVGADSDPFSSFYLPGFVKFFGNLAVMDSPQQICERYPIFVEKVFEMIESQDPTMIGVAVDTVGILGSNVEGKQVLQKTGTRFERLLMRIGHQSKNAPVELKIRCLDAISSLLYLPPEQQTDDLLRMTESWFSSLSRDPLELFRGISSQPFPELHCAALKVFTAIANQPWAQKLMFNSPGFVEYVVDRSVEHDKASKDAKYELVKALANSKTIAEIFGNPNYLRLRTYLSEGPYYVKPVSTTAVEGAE
UniProt Q96I23: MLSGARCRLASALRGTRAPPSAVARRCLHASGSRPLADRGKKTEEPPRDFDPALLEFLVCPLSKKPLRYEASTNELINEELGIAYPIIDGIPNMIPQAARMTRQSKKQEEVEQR
UniProt Q9P2B2: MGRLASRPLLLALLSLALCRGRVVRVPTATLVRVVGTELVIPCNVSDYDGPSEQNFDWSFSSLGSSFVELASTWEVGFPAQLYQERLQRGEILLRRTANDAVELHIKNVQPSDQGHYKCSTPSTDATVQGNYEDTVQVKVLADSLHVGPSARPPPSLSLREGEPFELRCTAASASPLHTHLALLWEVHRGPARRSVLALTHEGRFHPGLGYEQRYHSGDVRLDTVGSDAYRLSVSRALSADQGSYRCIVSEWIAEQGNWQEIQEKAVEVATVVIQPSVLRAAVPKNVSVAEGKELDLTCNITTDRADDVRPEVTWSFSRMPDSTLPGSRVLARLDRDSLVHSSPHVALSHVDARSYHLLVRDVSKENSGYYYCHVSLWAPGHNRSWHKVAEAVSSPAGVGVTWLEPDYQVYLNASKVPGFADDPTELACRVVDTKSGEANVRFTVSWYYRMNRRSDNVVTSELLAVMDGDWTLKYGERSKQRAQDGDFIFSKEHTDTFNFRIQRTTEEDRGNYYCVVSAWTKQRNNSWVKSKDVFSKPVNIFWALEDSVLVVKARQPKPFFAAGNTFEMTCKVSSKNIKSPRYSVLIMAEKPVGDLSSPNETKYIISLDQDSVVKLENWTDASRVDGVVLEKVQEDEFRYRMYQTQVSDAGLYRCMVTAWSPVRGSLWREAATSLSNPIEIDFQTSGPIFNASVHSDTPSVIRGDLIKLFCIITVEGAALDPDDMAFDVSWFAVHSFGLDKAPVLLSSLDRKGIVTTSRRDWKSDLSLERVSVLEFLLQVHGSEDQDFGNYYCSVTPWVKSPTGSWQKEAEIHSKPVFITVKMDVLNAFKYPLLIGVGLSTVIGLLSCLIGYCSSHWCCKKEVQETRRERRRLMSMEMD
UniProt Q03393: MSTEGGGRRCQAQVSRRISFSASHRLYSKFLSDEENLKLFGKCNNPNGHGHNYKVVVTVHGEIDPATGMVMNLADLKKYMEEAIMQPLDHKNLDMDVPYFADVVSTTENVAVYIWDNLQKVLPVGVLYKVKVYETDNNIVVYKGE
UniProt Q15185: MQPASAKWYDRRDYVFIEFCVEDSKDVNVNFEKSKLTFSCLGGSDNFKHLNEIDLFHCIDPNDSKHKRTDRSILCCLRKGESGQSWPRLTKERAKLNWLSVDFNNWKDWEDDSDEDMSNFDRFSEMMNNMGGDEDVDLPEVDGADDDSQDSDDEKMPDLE
UniProt P53801: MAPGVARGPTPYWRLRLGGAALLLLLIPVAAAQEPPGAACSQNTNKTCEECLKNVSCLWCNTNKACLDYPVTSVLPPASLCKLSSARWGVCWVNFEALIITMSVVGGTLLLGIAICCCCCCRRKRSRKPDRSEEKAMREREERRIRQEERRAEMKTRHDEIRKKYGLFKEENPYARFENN
UniProt P62195, whole entry, looked up: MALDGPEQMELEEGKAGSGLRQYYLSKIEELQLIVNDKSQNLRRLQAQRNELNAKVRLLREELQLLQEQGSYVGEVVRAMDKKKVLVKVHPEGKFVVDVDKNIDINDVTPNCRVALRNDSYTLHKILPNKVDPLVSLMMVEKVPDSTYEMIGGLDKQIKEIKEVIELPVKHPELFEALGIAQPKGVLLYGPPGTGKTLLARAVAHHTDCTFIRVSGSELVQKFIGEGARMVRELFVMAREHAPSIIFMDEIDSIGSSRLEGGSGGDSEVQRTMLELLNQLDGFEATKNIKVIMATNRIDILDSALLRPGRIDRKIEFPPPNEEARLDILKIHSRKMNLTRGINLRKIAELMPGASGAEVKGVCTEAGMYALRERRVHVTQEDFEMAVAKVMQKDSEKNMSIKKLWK
UniProt O14818: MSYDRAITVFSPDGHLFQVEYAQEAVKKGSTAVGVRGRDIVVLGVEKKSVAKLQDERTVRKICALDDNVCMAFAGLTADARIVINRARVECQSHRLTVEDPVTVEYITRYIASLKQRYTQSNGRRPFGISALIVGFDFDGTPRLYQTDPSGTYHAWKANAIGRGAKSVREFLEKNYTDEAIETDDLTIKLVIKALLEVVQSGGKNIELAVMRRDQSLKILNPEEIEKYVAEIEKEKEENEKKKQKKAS
UniProt P06737: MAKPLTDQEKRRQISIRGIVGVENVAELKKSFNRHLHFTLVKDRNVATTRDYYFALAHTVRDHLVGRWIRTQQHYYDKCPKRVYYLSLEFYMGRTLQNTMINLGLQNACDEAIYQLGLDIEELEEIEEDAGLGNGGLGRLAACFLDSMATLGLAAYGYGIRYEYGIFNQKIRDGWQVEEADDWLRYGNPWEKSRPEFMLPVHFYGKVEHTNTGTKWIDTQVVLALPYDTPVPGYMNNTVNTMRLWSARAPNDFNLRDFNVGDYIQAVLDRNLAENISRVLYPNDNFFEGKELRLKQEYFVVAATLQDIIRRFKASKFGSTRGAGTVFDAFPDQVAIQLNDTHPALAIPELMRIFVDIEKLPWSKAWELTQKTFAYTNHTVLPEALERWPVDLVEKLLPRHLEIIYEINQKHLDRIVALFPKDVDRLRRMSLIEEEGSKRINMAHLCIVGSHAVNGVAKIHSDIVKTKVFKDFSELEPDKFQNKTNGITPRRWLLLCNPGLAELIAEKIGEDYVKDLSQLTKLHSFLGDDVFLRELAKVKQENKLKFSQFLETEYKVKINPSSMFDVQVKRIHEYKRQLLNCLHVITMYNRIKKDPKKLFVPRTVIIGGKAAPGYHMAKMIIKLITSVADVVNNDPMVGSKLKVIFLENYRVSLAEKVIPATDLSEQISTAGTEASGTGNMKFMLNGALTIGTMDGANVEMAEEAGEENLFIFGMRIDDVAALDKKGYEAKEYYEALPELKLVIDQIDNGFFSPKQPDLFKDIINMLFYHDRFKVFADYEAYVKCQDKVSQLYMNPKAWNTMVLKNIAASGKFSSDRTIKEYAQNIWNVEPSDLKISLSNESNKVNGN
UniProt Q15257: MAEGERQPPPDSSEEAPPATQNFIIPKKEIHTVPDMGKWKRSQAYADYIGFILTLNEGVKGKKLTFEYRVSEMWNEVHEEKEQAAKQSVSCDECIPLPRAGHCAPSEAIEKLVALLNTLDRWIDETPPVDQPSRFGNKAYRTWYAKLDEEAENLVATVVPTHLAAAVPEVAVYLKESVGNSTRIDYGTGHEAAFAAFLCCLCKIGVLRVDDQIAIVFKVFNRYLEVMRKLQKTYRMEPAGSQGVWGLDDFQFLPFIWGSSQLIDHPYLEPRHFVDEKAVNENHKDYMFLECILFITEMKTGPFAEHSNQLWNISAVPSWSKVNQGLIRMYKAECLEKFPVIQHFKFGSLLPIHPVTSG
UniProt Q9UNM6: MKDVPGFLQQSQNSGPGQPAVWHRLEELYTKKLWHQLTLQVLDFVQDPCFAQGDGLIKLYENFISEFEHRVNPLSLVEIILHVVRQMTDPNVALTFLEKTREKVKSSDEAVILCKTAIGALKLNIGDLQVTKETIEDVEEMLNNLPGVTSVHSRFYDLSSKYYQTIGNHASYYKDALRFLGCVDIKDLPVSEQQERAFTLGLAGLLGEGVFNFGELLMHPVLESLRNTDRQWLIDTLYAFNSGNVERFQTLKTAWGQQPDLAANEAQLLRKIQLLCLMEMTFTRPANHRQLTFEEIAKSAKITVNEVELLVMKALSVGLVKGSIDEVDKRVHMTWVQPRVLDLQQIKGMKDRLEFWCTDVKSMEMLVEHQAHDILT
UniProt Q9H3S7: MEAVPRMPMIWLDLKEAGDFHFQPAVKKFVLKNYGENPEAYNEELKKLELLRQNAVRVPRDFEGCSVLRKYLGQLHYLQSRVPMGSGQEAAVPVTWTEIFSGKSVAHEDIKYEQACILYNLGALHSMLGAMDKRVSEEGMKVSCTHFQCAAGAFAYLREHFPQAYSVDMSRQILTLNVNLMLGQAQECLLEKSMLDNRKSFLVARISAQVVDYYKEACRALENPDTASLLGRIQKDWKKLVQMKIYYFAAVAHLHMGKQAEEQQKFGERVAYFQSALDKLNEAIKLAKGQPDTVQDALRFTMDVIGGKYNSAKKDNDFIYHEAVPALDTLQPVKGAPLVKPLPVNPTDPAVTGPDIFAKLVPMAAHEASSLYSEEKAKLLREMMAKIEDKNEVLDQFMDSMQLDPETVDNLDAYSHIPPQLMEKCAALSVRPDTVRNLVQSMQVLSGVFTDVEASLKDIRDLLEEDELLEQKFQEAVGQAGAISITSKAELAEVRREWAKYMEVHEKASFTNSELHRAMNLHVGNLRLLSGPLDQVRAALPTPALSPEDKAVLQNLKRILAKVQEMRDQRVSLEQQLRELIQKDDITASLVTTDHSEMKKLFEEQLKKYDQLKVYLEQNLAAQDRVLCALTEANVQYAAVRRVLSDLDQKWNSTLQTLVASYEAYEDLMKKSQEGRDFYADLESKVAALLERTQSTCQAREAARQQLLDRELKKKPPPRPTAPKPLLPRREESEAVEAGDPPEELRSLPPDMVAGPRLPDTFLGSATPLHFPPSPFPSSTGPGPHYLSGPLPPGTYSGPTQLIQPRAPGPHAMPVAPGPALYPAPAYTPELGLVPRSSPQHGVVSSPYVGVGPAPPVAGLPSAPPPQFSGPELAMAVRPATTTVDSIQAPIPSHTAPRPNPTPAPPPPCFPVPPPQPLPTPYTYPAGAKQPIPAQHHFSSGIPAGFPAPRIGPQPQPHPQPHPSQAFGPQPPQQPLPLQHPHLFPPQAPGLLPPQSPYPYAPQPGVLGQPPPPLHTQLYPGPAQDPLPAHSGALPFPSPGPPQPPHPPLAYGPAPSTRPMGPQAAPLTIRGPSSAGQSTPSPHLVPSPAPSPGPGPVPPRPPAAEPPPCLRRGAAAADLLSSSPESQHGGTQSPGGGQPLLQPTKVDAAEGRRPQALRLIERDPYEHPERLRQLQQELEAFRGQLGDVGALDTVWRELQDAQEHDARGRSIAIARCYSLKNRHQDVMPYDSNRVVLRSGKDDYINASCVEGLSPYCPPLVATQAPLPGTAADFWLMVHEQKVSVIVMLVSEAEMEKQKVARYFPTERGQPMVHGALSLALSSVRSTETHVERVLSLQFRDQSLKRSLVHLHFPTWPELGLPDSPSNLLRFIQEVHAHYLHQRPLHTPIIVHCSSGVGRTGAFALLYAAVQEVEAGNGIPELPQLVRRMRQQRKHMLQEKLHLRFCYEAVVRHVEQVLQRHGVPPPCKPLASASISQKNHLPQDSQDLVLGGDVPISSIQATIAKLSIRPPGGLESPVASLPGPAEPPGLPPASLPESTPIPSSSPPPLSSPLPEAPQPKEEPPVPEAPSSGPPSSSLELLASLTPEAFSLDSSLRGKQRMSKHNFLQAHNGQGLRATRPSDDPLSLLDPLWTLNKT

Tests used:
Test in all cases: log2 fold change, soluble protein after heating vs DMSO (PISA); higher = thermal stabilisation; K562 cells, 10 uM, 30 min; active = over 0.2 and 3.5 SD of the protein, either way, in both replicates (recomputed)
[1] = compound: C#Cc1cccc(Nc2ncnc3cc(OCCOC)c(OCCOC)cc23)c1 [erlotinib]
Method in brief: (§1)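 Soluble protein was quantified by TMTpro 16plex LC-MS/MS after channel sums were equalised. It was obtained as the supernatant after 21,000xg for 90 min from pooled aliquots of K562 cells (2×10^6 cells/mL, 10 μM compound, 30 min) heated for 3 min across 48°C-58°C and extracted in PBS with 0.5% NP-40 at 4°C. Thermal stability values are relative to control samples and come from duplicates. They are given as log2 fold changes.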

[2] = compound: C/C(=N\NC(=O)C1=CC(=CC=C1)S(=O)(=O)N2CCOCC2)/C3=C(C=CC(=C3)Cl)O
Method in brief: as §1

[3] = compound: C1=CC(=C(C=C1Cl)C2=NC3=NC=CN=C3C(=N2)NC4=CC=NC=C4)F
Method in brief: as §1

[4] = compound: C1=CC(=CC=C1C2=NC3=C(N2)C=C(C=C3)C(=O)N)OC4=CC=C(C=C4)Cl
Method in brief: as §1

[5] = compound: C1=CC2=C(C=CC(=C2)/C=C\3/C(=O)NC(=NCC4=CC=CS4)S3)N=C1
Method in brief: as §1

[6] = compound: C1=CC2=NC=CN=C2C=C1/C=C/3\C(=O)NC(=O)S3
Method in brief: as §1

[7] = compound: C1=CC=C(C=C1)C2=NC(=C(N2)C3=CC=NC=C3)C4=CC(=C(C=C4)Cl)O
Method in brief: as §1

[8] = compound: C1=CC=C2C(=C1)C3=NNC4=CC=CC(=C43)C2=O
Method in brief: as §1

[9] = compound: C1CCN(C1)C(=O)NC2=CC=CC(=C2)NC3=NC=C(C(=N3)NCCC4=CN=CN4)Br
Method in brief: as §1

[10] = compound: C1CN(CCC1(CC2=CC=C(C=C2)Cl)N)C3=NC=NC4=C3C=CN4
Method in brief: as §1

[11] = compound: C1COCCN1CCN2C3=CC=CC=C3N=C2NC(=O)C4=CC(=CC=C4)[N+](=O)[O-] [IRAK-1-4 Inhibitor I]
Method in brief: as §1

[12] = compound: C=CC(=O)N1CCC[C@@H](n2nc(-c3ccc(Oc4ccccc4)cc3)c3c(N)ncnc32)C1 [ibrutinib]
Method in brief: as §1

[13] = compound: CC(=O)c1cnc2ccc(-c3cc(Cl)c(O)c(Cl)c3)nc2c1N[C@H]1CC[C@H](CN(C)C)CC1
Method in brief: as §1

[14] = compound: CC(C)(C)Cn1c(N)nc2ccc(-c3[nH]c(C(C)(C)C)nc3-c3ccc(F)cc3)nc21 [ralimetinib]
Method in brief: as §1

[15] = compound: CC(C)(O)CC(=O)NCCn1ccc2ncnc(Nc3ccc(Oc4cccc(C(F)(F)F)c4)c(Cl)c3)c21
Method in brief: as §1

[16] = compound: CC(C)C1=C2N=C(C=C(N2N=C1)NCC3=CC=CC=C3)NCCCCCCN
Method in brief: as §1

[17] = compound: CC(C)C[C@@H](C=O)NC(=O)[C@H](CC(C)C)NC(=O)[C@H](CC(C)C)NC(=O)OCc1ccccc1
Method in brief: as §1

[18] = compound: CC(C)N(C[C@H]1O[C@@H](n2cnc3c(N)ncnc32)[C@H](O)[C@@H]1O)[C@H]1C[C@@H](CCc2nc3cc(C(C)(C)C)ccc3[nH]2)C1 [pinometostat]
Method in brief: as §1

[19] = compound: CC1=C(C2=C(C=C1)C(=O)C3=CC=CC=C3N2CCCN)C
Method in brief: as §1

[20] = compound: CC1=C(C(CC(=O)N1)C2=CC=C(C=C2)C(F)(F)F)C(=O)NC3=C(C=C4C(=C3)C=NN4)F
Method in brief: as §1

Measured: log2 fold change

PTPMT1 (UniProt Q8WUK0)
inactive: [1] -0.009 | [2] -0.017 | [3] 0.202 | [4] 0.053 | [5] 0.009 | [6] 0.015 | [7] 0.03 | [8] 0.013 | [9] -0.001 | [10] -0.045 | [11] 0.018 | [12] -0.05 | [13] -0.131 | [14] -0.144 | [15] -0.083 | [17] 0.052 | [18] 0.013 | [19] -0.057
active: [16] -0.579

QRSL1 (UniProt Q9H0R6)
active: [16] -0.231
inactive: [1] 0.024 | [2] 0.052 | [3] 0.118 | [4] -0.002 | [5] 0.06 | [6] -0.023 | [7] 0.071 | [8] -0.032 | [9] 0.017 | [10] -0.116 | [11] 0.016 | [12] 0.023 | [13] -0.025 | [14] 0.001 | [15] -0.071 | [17] -0.003 | [18] -0.087 | [19] 0.025

PSMD5 (UniProt Q16401)
inactive: [1] -0.015 | [2] 0.038 | [3] 0.063 | [4] -0.007 | [5] 0 | [6] 0.027 | [7] -0.001 | [8] -0.012 | [9] 0.014 | [10] -0.004 | [11] 0.04 | [12] -0.004 | [13] 0.047 | [14] -0.013 | [15] -0.033 | [16] -0.106 | [17] -0.061 | [18] -0.003 | [19] -0.042

PYURF (UniProt Q96I23)
inactive: [1] -0.029 | [2] -0.047 | [3] 0.138 | [4] 0.048 | [5] 0.132 | [6] 0.186 | [8] 0.024 | [9] 0.032 | [10] 0.012 | [11] 0.057 | [12] 0.007 | [13] 0.105 | [15] -0.171 | [16] 0.068 | [18] -0.165 | [20] -0.043 | [19] 0.03

3 neighbouring entries out of the list so far:
QRSL1 (UniProt Q9H0R6)
active: [16] -0.231
inactive: [1] 0.024 | [2] 0.052 | [3] 0.118 | [4] -0.002 | [5] 0.06 | [6] -0.023 | [7] 0.071 | [8] -0.032 | [9] 0.017 | [10] -0.116 | [11] 0.016 | [12] 0.023 | [13] -0.025 | [14] 0.001 | [15] -0.071 | [17] -0.003 | [18] -0.087 | [19] 0.025

PSMD5 (UniProt Q16401)
inactive: [1] -0.015 | [2] 0.038 | [3] 0.063 | [4] -0.007 | [5] 0 | [6] 0.027 | [7] -0.001 | [8] -0.012 | [9] 0.014 | [10] -0.004 | [11] 0.04 | [12] -0.004 | [13] 0.047 | [14] -0.013 | [15] -0.033 | [16] -0.106 | [17] -0.061 | [18] -0.003 | [19] -0.042

PYURF (UniProt Q96I23)
inactive: [1] -0.029 | [2] -0.047 | [3] 0.138 | [4] 0.048 | [5] 0.132 | [6] 0.186 | [8] 0.024 | [9] 0.032 | [10] 0.012 | [11] 0.057 | [12] 0.007 | [13] 0.105 | [15] -0.171 | [16] 0.068 | [18] -0.165 | [20] -0.043 | [19] 0.03

Remaining list, next part

PTGFRN (UniProt Q9P2B2)
active: [16] 0.222
inactive: [1] 0.019 | [2] -0.006 | [3] 0.021 | [4] 0 | [5] -0.034 | [6] 0.01 | [7] 0.015 | [8] -0.053 | [9] -0.027 | [10] 0.11 | [11] 0.009 | [12] 0.06 | [13] -0.111 | [14] -0.029 | [15] -0.026 | [17] 0.07 | [18] 0.002 | [19] 0.028

PTS (UniProt Q03393)
inactive: [1] -0.012 | [2] -0.021 | [3] 0.054 | [4] 0.043 | [5] 0.021 | [6] -0.011 | [8] -0.006 | [9] 0.177 | [10] 0.174 | [11] 0.054 | [12] 0.102 | [13] -0.053 | [15] -0.067 | [16] 0.034 | [18] 0.053 | [20] 0.077 | [19] -0.114

PTGES3 (UniProt Q15185)
inactive: [1] 0.005 | [2] 0.095 | [3] 0.079 | [4] -0.05 | [5] 0.019 | [6] 0.007 | [7] 0.043 | [8] -0.014 | [9] -0.014 | [10] -0.049 | [11] 0.04 | [12] 0 | [13] -0.01 | [14] 0.017 | [15] -0.103 | [16] -0.247 | [17] -0.079 | [18] -0.081 | [19] -0.202

PTPA (UniProt A6PVN8)
inactive: [1] -0.061 | [2] 0.21 | [3] -0.107 | [4] 0.367 | [5] 0.088 | [6] 0.031 | [7] 0.063 | [8] 0.065 | [9] 0.01 | [10] 0.031 | [12] 0.063 | [13] -0.241 | [14] -0.07 | [15] -0.052 | [16] 0.122 | [17] -0.002 | [19] -0.104

PSMB4 (UniProt P28070)
inactive: [1] -0.056 | [2] -0.024 | [3] -0.003 | [4] 0.001 | [5] -0.024 | [6] -0.035 | [7] -0.028 | [8] 0.001 | [9] 0.008 | [10] 0.037 | [11] -0.021 | [12] 0.006 | [13] 0.044 | [14] -0.008 | [15] 0.045 | [16] 0.065 | [17] -0.043 | [18] 0.03 | [19] 0.018

PTTG1IP (UniProt P53801)
inactive: [1] -0.011 | [2] -0.06 | [3] -0.039 | [4] -0.001 | [5] 0.026 | [6] 0.033 | [8] -0.082 | [9] 0.037 | [10] 0.01 | [11] -0.122 | [12] 0.028 | [13] -0.004 | [15] -0.031 | [16] 0.029 | [18] 0.028 | [19] -0.119

PSMC5 (UniProt P62195)
inactive: [1] -0.116 | [2] -0.044 | [3] -0.029 | [4] 0.021 | [5] -0.022 | [6] -0.03 | [7] -0.007 | [8] 0.019 | [9] 0.021 | [10] -0.032 | [11] -0.038 | [12] -0.031 | [13] 0.008 | [14] -0.014 | [15] 0.024 | [16] 0.009 | [18] 0.021 | [19] 0.002
active: [17] -0.273

PSMD7 (UniProt P51665)
active: [17] -0.216
inactive: [1] -0.074 | [2] -0.1 | [3] -0.045 | [4] -0.023 | [5] -0.015 | [6] -0.072 | [7] 0.02 | [8] -0.009 | [9] 0.044 | [10] -0.01 | [11] 0.055 | [12] -0.006 | [13] 0.028 | [14] 0.01 | [15] 0.057 | [16] 0.019 | [18] 0.066 | [19] -0.029

PSMA7 isoform 2 (UniProt O14818)
inactive: [1] 0.096 | [2] -0.12 | [3] -0.102 | [4] -0.004 | [5] 0.199 | [6] -0.119 | [8] 0.011 | [9] 0.178 | [10] 0.02 | [11] 0.011 | [12] 0.089 | [13] -0.037 | [15] 0.098 | [16] -0.055 | [18] 0.036 | [20] 0.169 | [19] 0.066

PYGL (UniProt P06737)
inactive: [1] -0.012 | [2] -0.008 | [3] 0.001 | [4] 0.037 | [5] 0.047 | [6] -0.007 | [7] -0.02 | [8] 0.008 | [9] -0.004 | [10] 0.08 | [11] 0.004 | [12] 0.033 | [13] -0.143 | [14] -0.038 | [15] 0.055 | [16] 0.068 | [17] -0.031 | [18] -0.007 | [19] 0.021

PTPA (UniProt Q15257)
inactive: [1] 0.022 | [2] 0.034 | [3] 0.069 | [4] 0.127 | [5] -0.01 | [6] 0.01 | [7] 0.022 | [8] 0.029 | [9] -0.037 | [10] -0.013 | [11] 0.016 | [12] -0.027 | [13] -0.003 | [14] -0.02 | [15] -0.022 | [16] -0.01 | [17] -0.028 | [18] -0.044 | [19] -0.011

PSMD13 (UniProt Q9UNM6)
active: [17] -0.265
inactive: [1] -0.091 | [2] -0.026 | [3] -0.076 | [4] 0.002 | [5] -0.02 | [6] 0.013 | [7] -0.002 | [8] 0.044 | [9] -0.008 | [10] -0.069 | [11] -0.048 | [12] -0.039 | [13] 0.048 | [14] -0.021 | [15] 0 | [16] 0.009 | [18] 0.09 | [19] 0.032

PTPN23 (UniProt Q9H3S7)
inactive: [1] 0.092 | [2] 0.158 | [3] -0.007 | [4] -0.048 | [5] 0.041 | [6] 0.018 | [7] 0 | [8] 0.006 | [9] -0.048 | [10] -0.029 | [11] -0.008 | [12] -0.052 | [13] -0.044 | [14] 0.013 | [15] -0.061 | [16] -0.095 | [17] 0.038 | [18] -0.009 | [19] 0.046
